The target in the assay is bZIP63 transcription factor (split-YFP fusions, positive control) (UniProt B9DGI8). The experiment in a line: split reporter; BiFC with NYFP and CYFP fusions (pSPYNE-35S, pSPYCE-35S) co-infiltrated by Agrobacterium into N. benthamiana leaves with TBSV p19. Confocal microscopy of epidermal cells at 3 to 4 dpi.

Results are given in words; binding and its absence hold for the method and conditions named. Binding seen in cells or lysates may run through a third protein. Some binding calls cover weakened binding; strength is not graded here. Sequences can lack the tags named with a protein.

The values that follow come from publication PMC6320799.

B1: bZIP63 transcription factor (split-YFP fusions, positive control) (protein, UniProt B9DGI8 1-314)
chain: MEKVFSDEEISGNHHWSVNGMTSLNRSASEWAFNRFIQESSAAADDGESTTACGVSVSSPPNVPVDSEEYRAFLKSKLNLACAAVAMKRGTFIKPQDTSGRSDNGGANESEQASLASSKATPMMSSAITSGSELSGDEEEADGETNMNPTNVKRVKRMLSNRESARRSRRRKQAHLSELETQVSQLRVENSKLMKGLTDVTQTFNDASVENRVLKANIETLRAKVKMAEETVKRLTGFNPMFHNMPQIVSTVSLPSETSNSPDTTSSQVTTPEIISSGNKGKALIGCKMNRTASMRRVESLEHLQKRIRSVGDQ
As to B1, the binding entry is reported as “binds”.
